± gives the standard deviation of the averaged measurements. This is a selection; strong and weak results do not stand in their true shares.
Compound: Nc1ncnc2c1ncn2[C@@H]1O[C@H](COP(=O)(O)OP(=O)(O)OP(=O)(O)O)[C@@H](O)[C@H]1O [adenosine triphosphate]
Experiment: NP40-soluble protein abundance relative to vehicle (solubility fold change) (ratio); higher = more soluble protein in presence of ATP
Procedure, shortened: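 Data come from three independent experiments in which Dounce-homogenised Jurkat crude lysate was treated at eight concentrations from 0.1 to 10 mM. Treatment ran 10 min at room temperature and then 3 min at 37 °C, after which 0.8% NP40 and benzonase were added for 60 min at 4 °C before ultracentrifugation. The supernatant underwent TMT labelling and LC-MS/MS, and vsn-normalised intensities were expressed as fold change against the detergent-processed vehicle in each replicate.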

Protein sequences, listed by entry. Tags and fused reporters are not part of them. Lines headed by an entry give the natural chain unless they say otherwise; changes in a name come on top.
UniProt Q14694, whole entry: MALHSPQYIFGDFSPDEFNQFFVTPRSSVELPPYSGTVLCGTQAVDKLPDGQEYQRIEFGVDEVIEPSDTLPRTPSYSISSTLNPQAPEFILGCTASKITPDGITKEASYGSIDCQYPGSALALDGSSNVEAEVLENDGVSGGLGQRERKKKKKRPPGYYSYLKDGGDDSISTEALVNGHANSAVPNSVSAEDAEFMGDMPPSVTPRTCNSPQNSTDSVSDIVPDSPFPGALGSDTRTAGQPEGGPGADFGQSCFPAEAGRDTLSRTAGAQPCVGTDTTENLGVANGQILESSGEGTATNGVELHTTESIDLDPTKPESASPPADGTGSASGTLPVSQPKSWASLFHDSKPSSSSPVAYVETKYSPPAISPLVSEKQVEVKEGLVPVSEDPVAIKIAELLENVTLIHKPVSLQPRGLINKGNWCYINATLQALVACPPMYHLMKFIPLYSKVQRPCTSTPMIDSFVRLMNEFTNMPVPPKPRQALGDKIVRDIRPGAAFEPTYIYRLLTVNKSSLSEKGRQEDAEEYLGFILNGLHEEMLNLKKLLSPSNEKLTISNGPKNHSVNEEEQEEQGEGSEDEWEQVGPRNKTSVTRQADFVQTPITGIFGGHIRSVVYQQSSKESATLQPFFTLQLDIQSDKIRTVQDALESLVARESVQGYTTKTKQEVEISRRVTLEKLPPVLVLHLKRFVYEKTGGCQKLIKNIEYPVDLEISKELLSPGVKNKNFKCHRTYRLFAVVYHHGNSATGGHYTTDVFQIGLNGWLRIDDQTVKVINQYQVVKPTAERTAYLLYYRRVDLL
UniProt Q14240, whole entry: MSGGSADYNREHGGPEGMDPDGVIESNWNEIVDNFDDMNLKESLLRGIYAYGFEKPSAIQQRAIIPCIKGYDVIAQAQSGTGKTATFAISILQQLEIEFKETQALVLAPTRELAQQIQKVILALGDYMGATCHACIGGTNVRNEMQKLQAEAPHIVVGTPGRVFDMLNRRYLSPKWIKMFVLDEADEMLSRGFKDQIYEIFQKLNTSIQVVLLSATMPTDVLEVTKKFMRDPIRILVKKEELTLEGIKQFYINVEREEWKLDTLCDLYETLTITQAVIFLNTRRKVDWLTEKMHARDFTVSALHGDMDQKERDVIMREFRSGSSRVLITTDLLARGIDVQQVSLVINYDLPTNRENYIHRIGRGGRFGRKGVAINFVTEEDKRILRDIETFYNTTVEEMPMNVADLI
UniProt Q14651: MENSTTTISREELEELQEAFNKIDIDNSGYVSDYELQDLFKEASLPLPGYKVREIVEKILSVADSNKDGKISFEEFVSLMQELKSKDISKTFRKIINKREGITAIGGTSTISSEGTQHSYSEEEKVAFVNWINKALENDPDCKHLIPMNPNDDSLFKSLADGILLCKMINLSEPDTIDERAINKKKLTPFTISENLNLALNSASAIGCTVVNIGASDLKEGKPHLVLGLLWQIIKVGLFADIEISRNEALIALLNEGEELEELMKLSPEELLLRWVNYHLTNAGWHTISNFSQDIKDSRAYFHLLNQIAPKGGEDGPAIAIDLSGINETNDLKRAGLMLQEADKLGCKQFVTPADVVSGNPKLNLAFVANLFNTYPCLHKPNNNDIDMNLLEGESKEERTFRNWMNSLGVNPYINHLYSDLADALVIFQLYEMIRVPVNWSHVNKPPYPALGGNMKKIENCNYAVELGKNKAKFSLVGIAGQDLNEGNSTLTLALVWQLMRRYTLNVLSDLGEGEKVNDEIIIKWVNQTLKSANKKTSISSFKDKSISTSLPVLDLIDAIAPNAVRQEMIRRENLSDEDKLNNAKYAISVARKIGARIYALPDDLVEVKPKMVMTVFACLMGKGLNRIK
UniProt Q15102: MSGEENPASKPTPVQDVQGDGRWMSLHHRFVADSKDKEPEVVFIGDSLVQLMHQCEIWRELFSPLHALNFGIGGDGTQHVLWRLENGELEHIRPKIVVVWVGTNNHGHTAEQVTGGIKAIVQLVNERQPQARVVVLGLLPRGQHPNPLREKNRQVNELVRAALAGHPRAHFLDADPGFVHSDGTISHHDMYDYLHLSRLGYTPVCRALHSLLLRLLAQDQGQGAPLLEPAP
UniProt Q15649: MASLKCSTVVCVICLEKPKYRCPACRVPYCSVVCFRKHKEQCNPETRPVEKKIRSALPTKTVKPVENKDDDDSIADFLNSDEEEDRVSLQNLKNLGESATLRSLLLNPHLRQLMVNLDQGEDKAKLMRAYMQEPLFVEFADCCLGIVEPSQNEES
UniProt Q15019: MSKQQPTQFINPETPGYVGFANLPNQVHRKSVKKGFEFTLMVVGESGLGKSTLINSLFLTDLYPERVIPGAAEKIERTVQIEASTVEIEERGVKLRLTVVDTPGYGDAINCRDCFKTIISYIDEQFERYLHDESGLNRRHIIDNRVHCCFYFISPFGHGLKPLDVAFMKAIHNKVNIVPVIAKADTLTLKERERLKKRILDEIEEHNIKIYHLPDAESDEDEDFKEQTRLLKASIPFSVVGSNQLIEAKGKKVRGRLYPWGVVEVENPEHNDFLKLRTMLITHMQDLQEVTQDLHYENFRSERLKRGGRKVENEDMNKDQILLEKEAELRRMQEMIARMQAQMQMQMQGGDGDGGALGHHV
UniProt Q15427: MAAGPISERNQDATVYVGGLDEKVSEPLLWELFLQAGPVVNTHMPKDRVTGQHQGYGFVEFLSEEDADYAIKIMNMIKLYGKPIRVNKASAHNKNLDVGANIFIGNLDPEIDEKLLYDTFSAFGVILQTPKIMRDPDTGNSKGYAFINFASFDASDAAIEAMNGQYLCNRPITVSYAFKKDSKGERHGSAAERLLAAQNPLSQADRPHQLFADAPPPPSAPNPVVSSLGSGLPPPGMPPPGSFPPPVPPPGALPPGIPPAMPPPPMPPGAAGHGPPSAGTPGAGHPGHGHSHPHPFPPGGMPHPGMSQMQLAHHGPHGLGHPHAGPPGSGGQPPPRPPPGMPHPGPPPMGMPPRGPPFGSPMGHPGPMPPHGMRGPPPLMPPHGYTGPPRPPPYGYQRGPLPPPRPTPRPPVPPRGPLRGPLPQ
UniProt Q14566: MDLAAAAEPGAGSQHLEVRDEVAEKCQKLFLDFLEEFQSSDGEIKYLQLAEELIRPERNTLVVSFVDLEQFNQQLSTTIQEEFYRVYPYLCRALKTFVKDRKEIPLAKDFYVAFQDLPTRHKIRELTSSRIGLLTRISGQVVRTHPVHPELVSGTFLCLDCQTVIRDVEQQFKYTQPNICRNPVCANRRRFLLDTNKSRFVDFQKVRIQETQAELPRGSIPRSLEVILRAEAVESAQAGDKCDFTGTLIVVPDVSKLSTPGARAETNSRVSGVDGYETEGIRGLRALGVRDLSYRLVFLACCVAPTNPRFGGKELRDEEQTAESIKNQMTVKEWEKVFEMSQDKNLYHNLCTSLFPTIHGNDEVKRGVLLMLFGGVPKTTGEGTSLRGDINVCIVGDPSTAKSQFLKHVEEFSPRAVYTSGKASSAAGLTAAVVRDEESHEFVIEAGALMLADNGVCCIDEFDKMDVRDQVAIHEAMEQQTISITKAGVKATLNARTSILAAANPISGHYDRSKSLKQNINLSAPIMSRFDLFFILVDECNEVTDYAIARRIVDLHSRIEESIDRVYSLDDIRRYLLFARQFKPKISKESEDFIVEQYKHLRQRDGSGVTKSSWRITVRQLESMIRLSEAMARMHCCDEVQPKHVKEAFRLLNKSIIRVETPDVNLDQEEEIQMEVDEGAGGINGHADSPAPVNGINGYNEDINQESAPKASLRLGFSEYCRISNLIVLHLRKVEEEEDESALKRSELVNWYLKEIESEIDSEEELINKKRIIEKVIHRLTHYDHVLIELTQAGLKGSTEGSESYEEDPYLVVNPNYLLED
UniProt Q16222: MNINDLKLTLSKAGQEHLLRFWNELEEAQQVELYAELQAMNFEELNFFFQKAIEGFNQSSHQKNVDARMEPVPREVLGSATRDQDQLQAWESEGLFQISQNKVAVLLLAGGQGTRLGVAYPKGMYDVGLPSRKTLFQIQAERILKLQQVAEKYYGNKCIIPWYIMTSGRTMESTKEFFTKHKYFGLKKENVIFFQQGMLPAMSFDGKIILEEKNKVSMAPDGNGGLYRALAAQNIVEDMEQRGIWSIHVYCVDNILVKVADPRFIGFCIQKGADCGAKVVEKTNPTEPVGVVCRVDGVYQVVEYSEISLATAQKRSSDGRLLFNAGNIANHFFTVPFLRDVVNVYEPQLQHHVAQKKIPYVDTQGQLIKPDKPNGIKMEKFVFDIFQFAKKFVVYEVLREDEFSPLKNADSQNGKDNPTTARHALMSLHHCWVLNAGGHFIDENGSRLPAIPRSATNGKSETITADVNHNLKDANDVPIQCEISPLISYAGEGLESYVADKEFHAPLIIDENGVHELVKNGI
UniProt Q15424: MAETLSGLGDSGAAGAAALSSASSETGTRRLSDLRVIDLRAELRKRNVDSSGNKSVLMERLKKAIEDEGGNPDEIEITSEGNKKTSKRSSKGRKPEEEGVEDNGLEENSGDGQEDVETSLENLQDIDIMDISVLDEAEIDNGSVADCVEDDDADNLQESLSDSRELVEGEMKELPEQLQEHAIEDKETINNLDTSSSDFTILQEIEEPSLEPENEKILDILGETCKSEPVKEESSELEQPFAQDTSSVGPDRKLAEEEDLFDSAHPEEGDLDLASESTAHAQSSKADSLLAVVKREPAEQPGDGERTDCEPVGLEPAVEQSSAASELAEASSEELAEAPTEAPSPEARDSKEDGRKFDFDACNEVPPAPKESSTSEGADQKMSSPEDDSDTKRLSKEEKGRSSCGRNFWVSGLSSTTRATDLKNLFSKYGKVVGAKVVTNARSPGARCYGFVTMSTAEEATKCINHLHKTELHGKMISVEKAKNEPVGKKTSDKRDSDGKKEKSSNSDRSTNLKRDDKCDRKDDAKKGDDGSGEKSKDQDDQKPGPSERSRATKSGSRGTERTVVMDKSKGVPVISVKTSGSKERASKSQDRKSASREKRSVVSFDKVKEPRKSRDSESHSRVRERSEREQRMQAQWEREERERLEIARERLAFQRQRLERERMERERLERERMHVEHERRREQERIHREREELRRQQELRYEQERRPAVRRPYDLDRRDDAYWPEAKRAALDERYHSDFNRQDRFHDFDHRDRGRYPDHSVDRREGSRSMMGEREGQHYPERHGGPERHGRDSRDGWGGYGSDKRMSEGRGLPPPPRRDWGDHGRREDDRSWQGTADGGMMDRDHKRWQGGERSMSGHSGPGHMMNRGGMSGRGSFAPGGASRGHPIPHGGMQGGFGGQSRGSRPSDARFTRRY
UniProt Q3B7J2: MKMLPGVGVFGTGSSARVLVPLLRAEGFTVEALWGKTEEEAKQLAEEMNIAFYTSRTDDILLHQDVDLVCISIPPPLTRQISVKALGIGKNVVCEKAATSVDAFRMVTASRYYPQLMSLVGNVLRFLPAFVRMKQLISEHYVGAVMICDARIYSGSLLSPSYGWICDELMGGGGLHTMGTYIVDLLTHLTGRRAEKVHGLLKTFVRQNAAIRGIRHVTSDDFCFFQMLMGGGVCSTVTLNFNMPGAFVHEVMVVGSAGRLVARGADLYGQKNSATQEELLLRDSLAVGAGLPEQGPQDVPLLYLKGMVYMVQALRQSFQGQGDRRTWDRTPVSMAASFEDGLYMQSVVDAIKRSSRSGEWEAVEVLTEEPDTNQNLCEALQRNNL
UniProt Q14653: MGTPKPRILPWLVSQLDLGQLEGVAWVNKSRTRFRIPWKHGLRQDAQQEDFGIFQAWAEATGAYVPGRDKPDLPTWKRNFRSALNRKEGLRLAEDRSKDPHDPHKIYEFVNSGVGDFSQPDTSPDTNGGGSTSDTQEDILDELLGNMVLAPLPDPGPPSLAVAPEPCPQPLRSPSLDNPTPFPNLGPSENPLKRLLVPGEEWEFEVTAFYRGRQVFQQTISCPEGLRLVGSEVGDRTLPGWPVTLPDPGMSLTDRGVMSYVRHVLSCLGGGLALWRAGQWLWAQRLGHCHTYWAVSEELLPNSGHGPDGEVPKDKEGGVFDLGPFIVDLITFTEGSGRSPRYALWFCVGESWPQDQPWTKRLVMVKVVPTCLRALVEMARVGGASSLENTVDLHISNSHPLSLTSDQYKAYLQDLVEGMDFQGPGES
UniProt Q8IVH4: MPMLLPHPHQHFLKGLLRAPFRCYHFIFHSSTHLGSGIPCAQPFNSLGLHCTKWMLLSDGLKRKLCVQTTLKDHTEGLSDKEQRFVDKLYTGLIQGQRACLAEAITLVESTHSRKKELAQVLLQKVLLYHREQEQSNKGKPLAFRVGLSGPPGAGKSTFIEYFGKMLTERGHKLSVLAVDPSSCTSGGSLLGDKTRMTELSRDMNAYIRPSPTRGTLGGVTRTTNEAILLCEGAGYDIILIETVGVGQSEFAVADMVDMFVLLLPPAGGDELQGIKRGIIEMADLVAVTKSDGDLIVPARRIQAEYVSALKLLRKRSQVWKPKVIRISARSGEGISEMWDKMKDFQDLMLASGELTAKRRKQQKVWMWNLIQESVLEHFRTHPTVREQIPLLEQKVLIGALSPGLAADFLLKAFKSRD

Target	NP40-soluble protein abundance (concentration: 1mM)	NP40-soluble protein abundance (concentration: 2mM)	NP40-soluble protein abundance (concentration: 4mM)	NP40-soluble protein abundance (concentration: 6mM)	NP40-soluble protein abundance (concentration: 8mM)	NP40-soluble protein abundance (concentration: 10mM)
UniProt Q16656 and related entries	0.955 ± 0.062	0.962 ± 0.054	0.933 ± 0.042	0.949 ± 0.067	0.913 ± 0.042	0.937 ± 0.028
UniProt Q14694 and related entries	1.05 ± 0.025	1.13 ± 0.028	1.21 ± 0.047	1.3 ± 0.048	1.34 ± 0.04	1.41 ± 0.049
UniProt Q14240-2|Q14240	1.14 ± 0.091	1.15 ± 0.069	1.11 ± 0.067	1.15 ± 0.13	1.21 ± 0.066	1.21 ± 0.03
PLS1 (UniProt Q14651)	0.98 ± 0.026	0.986 ± 0.033	0.962 ± 0.03	0.938 ± 0.079	0.914 ± 0.019	0.962 ± 0.054
RASA3 (UniProt Q14644)	1.02 ± 0.086	0.967 ± 0.029	0.958 ± 0.042	0.968 ± 0.051	1.01 ± 0.086	1 ± 0.076
C5orf22 (UniProt Q49AR2)	0.952 ± 0.023	0.989 ± 0.015	1.01 ± 0.038	0.996 ± 0.03	0.939 ± 0.037	0.953 ± 0.044
PAFAH1B3 (UniProt Q15102)	0.958 ± 0.026	0.96 ± 0.021	0.931 ± 0.02	0.897 ± 0.066	0.9177 ± 0.0031	0.898 ± 0.051
UniProt Q2KHR3 and related entries	1.06 ± 0.03	1.09 ± 0.044	1.04 ± 0.084	1 ± 0.087	1.03 ± 0.017	1.057 ± 0.01
ZNHIT3 (UniProt Q15649)	0.958 ± 0.11	1.04 ± 0.14	1.04 ± 0.088	1.03 ± 0.041	0.983 ± 0.11	1 ± 0.083
UniProt Q15019 and related entries	0.98 ± 0.019	0.966 ± 0.023	0.947 ± 0.033	0.987 ± 0.037	0.961 ± 0.042	0.943 ± 0.032
SF3B4 (UniProt Q15427)	1.1 ± 0.12	1.12 ± 0.032	1.13 ± 0.1	1.18 ± 0.094	1.18 ± 0.093	1.21 ± 0.081
MCM6 (UniProt Q14566)	0.95 ± 0.054	0.945 ± 0.068	0.929 ± 0.057	0.883 ± 0.051	0.979 ± 0.034	0.915 ± 0.05
ITPR3 (UniProt Q14573)	1.08 ± 0.036	1.04 ± 0.053	1.05 ± 0.02	1.02 ± 0.1	1.1 ± 0.086	1.1 ± 0.13
UniProt Q15910 and related entries	1.18 ± 0.032	1.22 ± 0.042	1.23 ± 0.043	1.3 ± 0.11	1.31 ± 0.039	1.33 ± 0.053
UniProt Q2TAY7	1.13 ± 0.16	1.18 ± 0.076	1.17 ± 0.11	1.14 ± 0.16	1.29 ± 0.063	1.37 ± 0.089
UniProt Q15149 and related entries	1.16 ± 0.032	1.16 ± 0.036	1.17 ± 0.043	1.18 ± 0.062	1.17 ± 0.038	1.17 ± 0.039
PMVK (UniProt Q15126)	0.955 ± 0.019	0.976 ± 0.025	0.939 ± 0.038	0.932 ± 0.044	0.946 ± 0.047	0.946 ± 0.04
UniProt Q16222 and related entries	0.976 ± 0.053	0.962 ± 0.062	0.942 ± 0.042	0.905 ± 0.086	0.959 ± 0.032	0.95 ± 0.058
CLPP (UniProt Q16740)	0.957 ± 0.031	0.954 ± 0.025	0.947 ± 0.025	0.954 ± 0.036	0.94 ± 0.025	0.938 ± 0.015
UniProt Q15424 and related entries	0.989 ± 0.082	0.979 ± 0.069	1.03 ± 0.098	1.23 ± 0.12	1.21 ± 0.096	1.32 ± 0.085
DDB1 (UniProt Q16531)	1.04 ± 0.12	1.02 ± 0.085	0.998 ± 0.093	0.949 ± 0.092	1.02 ± 0.045	1.01 ± 0.061
UniProt Q14978-2	0.791 ± 0.039	0.786 ± 0.035	0.824 ± 0.049	0.968 ± 0.056	1 ± 0.072	1.06 ± 0.023
UniProt Q14161-5|Q14161	0.985 ± 0.066	0.957 ± 0.035	0.935 ± 0.061	0.971 ± 0.075	0.931 ± 0.044	0.92 ± 0.027
UniProt Q3B7J2 and related entries	0.973 ± 0.11	0.973 ± 0.093	0.958 ± 0.086	0.911 ± 0.11	0.98 ± 0.021	1.05 ± 0.075
CAMK4 (UniProt Q16566)	0.954 ± 0.011	0.966 ± 0.013	0.933 ± 0.019	0.965 ± 0.051	0.924 ± 0.022	0.952 ± 0.031
UniProt Q14197	1.01 ± 0.048	0.923 ± 0.1	0.906 ± 0.049	0.939 ± 0.22	0.928 ± 0.11	0.89 ± 0.12
UniProt Q4ADV7 and related entries	0.979 ± 0.057	1.01 ± 0.12	0.937 ± 0.19	0.979 ± 0.13	0.966 ± 0.084	1.02 ± 0.19
ADRM1 (UniProt Q16186)	0.8742 ± 0.007	0.843 ± 0.053	0.81 ± 0.055	0.826 ± 0.13	0.805 ± 0.077	0.817 ± 0.053
UniProt Q14653 and related entries	1.03 ± 0.052	0.949 ± 0.067	0.949 ± 0.043	0.953 ± 0.11	0.924 ± 0.042	0.956 ± 0.068
Q495G5 and related entries (UniProt Q8IVH4)	0.963 ± 0.028	0.963 ± 0.027	0.9373 ± 0.0068	0.898 ± 0.063	0.946 ± 0.028	0.957 ± 0.016

Some of the entries so far, in CSV form.
Target,NP40-soluble protein abundance (concentration: 1mM),NP40-soluble protein abundance (concentration: 2mM),NP40-soluble protein abundance (concentration: 4mM),NP40-soluble protein abundance (concentration: 6mM),NP40-soluble protein abundance (concentration: 8mM),NP40-soluble protein abundance (concentration: 10mM)
PLS1 (UniProt Q14651),0.98 ± 0.026,0.986 ± 0.033,0.962 ± 0.03,0.938 ± 0.079,0.914 ± 0.019,0.962 ± 0.054
C5orf22 (UniProt Q49AR2),0.952 ± 0.023,0.989 ± 0.015,1.01 ± 0.038,0.996 ± 0.03,0.939 ± 0.037,0.953 ± 0.044
UniProt Q15149 and related entries,1.16 ± 0.032,1.16 ± 0.036,1.17 ± 0.043,1.18 ± 0.062,1.17 ± 0.038,1.17 ± 0.039
UniProt Q15424 and related entries,0.989 ± 0.082,0.979 ± 0.069,1.03 ± 0.098,1.23 ± 0.12,1.21 ± 0.096,1.32 ± 0.085
ADRM1 (UniProt Q16186),0.8742 ± 0.007,0.843 ± 0.053,0.81 ± 0.055,0.826 ± 0.13,0.805 ± 0.077,0.817 ± 0.053
